The record followed here is the supplement of paper PMC3334620.

In all, about 33,000 sequences were measured (“E-score (-0.5 to 0.5)”: median about -0.016, highest 2% from about 0.3 on). Some of the results follow.

The target in this experiment is T1, Yer184c (UniProt P39961).
T1 sequence: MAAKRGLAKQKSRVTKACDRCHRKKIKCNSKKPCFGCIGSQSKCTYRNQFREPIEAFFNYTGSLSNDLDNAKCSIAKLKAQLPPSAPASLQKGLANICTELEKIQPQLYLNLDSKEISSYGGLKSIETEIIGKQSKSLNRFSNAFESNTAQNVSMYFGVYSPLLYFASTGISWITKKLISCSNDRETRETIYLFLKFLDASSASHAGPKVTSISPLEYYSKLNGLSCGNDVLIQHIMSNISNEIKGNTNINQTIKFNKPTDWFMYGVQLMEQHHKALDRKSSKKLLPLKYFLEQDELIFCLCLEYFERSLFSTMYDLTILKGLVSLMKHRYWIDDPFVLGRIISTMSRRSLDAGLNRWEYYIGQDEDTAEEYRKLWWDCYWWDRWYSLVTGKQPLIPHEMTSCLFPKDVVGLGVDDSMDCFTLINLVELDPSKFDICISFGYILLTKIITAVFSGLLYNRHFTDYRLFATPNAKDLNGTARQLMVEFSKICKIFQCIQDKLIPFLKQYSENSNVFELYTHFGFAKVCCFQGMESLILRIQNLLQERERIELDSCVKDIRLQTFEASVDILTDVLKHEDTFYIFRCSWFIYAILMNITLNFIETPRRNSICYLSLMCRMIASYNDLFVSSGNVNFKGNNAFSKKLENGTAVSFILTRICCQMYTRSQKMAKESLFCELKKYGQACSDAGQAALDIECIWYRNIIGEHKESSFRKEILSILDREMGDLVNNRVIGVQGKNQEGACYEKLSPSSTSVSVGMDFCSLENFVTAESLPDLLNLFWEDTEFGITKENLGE
Briefly: PBM E-score (8-mer binding enrichment) (E-score (-0.5 to 0.5)); higher = stronger / more preferred TF binding. As to conditions: protein concentration: 100 nM; construct: GST-full length. The method, boiled down: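 Using PURExpress in vitro transcription/translation, GST-tagged yeast transcription factors were made in full-length or DNA-binding-domain form. These were applied at about 100-200 nM to double-stranded universal all-10-mer Agilent arrays, and bound protein was detected with fluorescent anti-GST. Scans were normalised with masliner before the Universal PBM Analysis Suite assigned E-scores to ungapped eight-base words pooled with their reverse complements.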
On to ATCATTTC, for which the “PBM E-score” value worked out at 0.273.

With ATACAACG, the “PBM E-score” value stood at 0.187.

As to AGTACAAG, the “PBM E-score” value is -0.168.

For AACACCAA, the “PBM E-score” value is -0.0707.

As for CTTAATTA, the “PBM E-score” value came to 0.112.

As to CAGACTAC, the “PBM E-score” value came out at 0.00586.

For the sequence ATAGACTC, the “PBM E-score” value is -0.178.

Turning to CAACCTTA, the “PBM E-score” value is -0.103.

For the sequence CAAGCCAA, the “PBM E-score” value amounted to 0.0318.

For GAGTAGCA, the “PBM E-score” value was determined as 0.0857.

ACATCGTA: the “PBM E-score” value was -0.0414.

For the sequence AGTACTGG, the “PBM E-score” value was -0.0838.

Take TCGTTCCA: the “PBM E-score” value amounted to 0.0101.

In the case of ATGTTTGC, the “PBM E-score” value was -0.0549.

Take ATTAAAGA: the “PBM E-score” value turned out to be 0.236.

Consider ACATACGA, for which the “PBM E-score” value was -0.0105.

For TCCGTGCA, the “PBM E-score” value came to 0.262.

With GTGATGGA, the “PBM E-score” value was -0.0356.

On to AGGCCTGG, for which the “PBM E-score” value was -0.159.

On to ACACAGCG, for which the “PBM E-score” value was 0.198.

As to TAGTCCAA, the “PBM E-score” value is -0.154.

For CGTTCCAC, the “PBM E-score” value was -0.0422.

Take CGTCGCGA: the “PBM E-score” value is 0.0973.

On to ACCTGGCT, for which the “PBM E-score” value is -0.236.

Consider AACATGAC, for which the “PBM E-score” value is -0.0671.

GCCATGGA: the “PBM E-score” value is -0.23.

GAGTACGA: the “PBM E-score” value turned out to be 0.127.

For TCGGCTCA, the “PBM E-score” value was 0.2.

Take GCAGTATA: the “PBM E-score” value was determined as 0.0249.

With AGTCCATC, the “PBM E-score” value is -0.0363.

For the sequence TATCGGAA, the “PBM E-score” value came out at 0.351.

With GTGCCCTA, the “PBM E-score” value was -0.341.

On to GTCGCTTA, for which the “PBM E-score” value was determined as 0.157.

With CTAGCGAC, the “PBM E-score” value was -0.137.

As to AATCCCAG, the “PBM E-score” value is -0.111.

Consider GATTGCCC, for which the “PBM E-score” value is -0.19.

In the case of CGTTTGTC, the “PBM E-score” value worked out at 0.0106.

With CTAACCAC, the “PBM E-score” value was -0.0155.

Regarding ACTGCTTC, the “PBM E-score” value is -0.21.

With AGGACTAG, the “PBM E-score” value is 0.00731.

In the case of GATGCACC, the “PBM E-score” value was -0.0505.

Consider CGGGGGCC, for which the “PBM E-score” value is -0.133.

Consider CACTCTGC, for which the “PBM E-score” value was -0.125.

As to AGACTGAT, the “PBM E-score” value was -0.0815.

GGTCGGTA: the “PBM E-score” value stood at 0.0252.

With CGTCAAGC, the “PBM E-score” value was -0.0178.

GTCCGTGA: the “PBM E-score” value worked out at 0.0464.

As to AATGTTCA, the “PBM E-score” value is -0.0281.

As for CAAGAAGG, the “PBM E-score” value is -0.217.

As to GTGGACCA, the “PBM E-score” value is -0.102.

For the sequence GCGGGGAA, the “PBM E-score” value is -0.0187.

With CTGCCAAG, the “PBM E-score” value was -0.151.

As for AGAAAAAG, the “PBM E-score” value worked out at 0.127.

Turning to GAAGGCCC, the “PBM E-score” value was -0.183.

In the case of CCTTCCCG, the “PBM E-score” value is -0.0498.

In the case of AGTCAGGA, the “PBM E-score” value was -0.12.

In the case of TCGAGAAA, the “PBM E-score” value was determined as 0.0245.

Turning to AGGGAAGC, the “PBM E-score” value was -0.264.

Turning to CCGAATGC, the “PBM E-score” value was found to be 0.259.

In the case of TCCTAGCA, the “PBM E-score” value was -0.0909.

For TTCAAGAA, the “PBM E-score” value turned out to be 0.312.

On to GGTTGTAA, for which the “PBM E-score” value is -0.0276.

With CGGGCCGA, the “PBM E-score” value was 0.308.

Consider CTACGTGC, for which the “PBM E-score” value is -0.236.

With ATTTTATG, the “PBM E-score” value came out at 0.217.

In the case of CCAGTACG, the “PBM E-score” value worked out at 0.0123.

As to AGACATAA, the “PBM E-score” value is -0.12.

On to GCAGAAGA, for which the “PBM E-score” value turned out to be 0.0161.

As for GTCTTTAA, the “PBM E-score” value was determined as 0.0778.

Take CCGTATAG: the “PBM E-score” value is -0.021.

In the case of ACATAGCA, the “PBM E-score” value was -0.0537.

On to ACTGCTCG, for which the “PBM E-score” value was 0.072.

Take CTATTTAA: the “PBM E-score” value stood at 0.0903.

Turning to TAGGAATA, the “PBM E-score” value was 0.0114.

Consider ATCGCGGG, for which the “PBM E-score” value is -0.153.

For the sequence AGTCTGAG, the “PBM E-score” value was -0.14.

As for AGTTAAGG, the “PBM E-score” value was -0.00816.

Take AGGATAAA: the “PBM E-score” value was found to be 0.0326.

As to AATTCGCG, the “PBM E-score” value was found to be 0.111.

As to ACCAACGC, the “PBM E-score” value was -0.125.

For the sequence AGGAAACA, the “PBM E-score” value was 0.165.

As to CTGATGGC, the “PBM E-score” value was -0.052.

Turning to ATTGTTAG, the “PBM E-score” value turned out to be 0.0956.

In the case of GTATTCTA, the “PBM E-score” value was 0.143.

Regarding AATTTGTA, the “PBM E-score” value was found to be 0.126.

On to TAGCTCGA, for which the “PBM E-score” value was 0.00856.
